Laboratory results from PMC4426689.
Results are given in words; binding and its absence hold for the method and conditions named. Binding seen in cells or lysates may run through a third protein. Some results given as binding are weak or reduced against the parent protein; the word gives no strength.

Chains of the proteins cited; added tags and fusions are not shown. Residues count along the entry.
UniProt Q16665: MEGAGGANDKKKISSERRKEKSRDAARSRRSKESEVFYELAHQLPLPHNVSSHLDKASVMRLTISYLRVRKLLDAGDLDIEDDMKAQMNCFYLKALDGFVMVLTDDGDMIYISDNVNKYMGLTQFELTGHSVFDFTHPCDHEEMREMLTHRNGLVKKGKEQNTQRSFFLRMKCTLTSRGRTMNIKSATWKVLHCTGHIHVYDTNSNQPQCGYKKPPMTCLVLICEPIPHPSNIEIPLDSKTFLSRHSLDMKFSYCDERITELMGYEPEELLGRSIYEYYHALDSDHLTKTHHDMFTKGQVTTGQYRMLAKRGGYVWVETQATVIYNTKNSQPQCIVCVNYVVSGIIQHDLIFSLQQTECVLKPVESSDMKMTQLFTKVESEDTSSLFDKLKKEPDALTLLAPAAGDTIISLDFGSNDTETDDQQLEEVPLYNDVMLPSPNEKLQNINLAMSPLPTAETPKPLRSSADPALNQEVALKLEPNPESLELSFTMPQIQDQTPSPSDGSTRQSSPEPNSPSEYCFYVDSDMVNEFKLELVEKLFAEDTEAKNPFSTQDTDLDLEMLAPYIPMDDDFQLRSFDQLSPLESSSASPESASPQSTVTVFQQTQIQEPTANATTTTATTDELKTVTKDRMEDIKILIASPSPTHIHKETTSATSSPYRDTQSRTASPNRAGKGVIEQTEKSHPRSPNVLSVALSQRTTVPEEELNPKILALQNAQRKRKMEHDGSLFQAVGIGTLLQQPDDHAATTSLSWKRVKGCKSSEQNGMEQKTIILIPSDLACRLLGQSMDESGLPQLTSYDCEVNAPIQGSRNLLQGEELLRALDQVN
UniProt P13473, residues 29-410: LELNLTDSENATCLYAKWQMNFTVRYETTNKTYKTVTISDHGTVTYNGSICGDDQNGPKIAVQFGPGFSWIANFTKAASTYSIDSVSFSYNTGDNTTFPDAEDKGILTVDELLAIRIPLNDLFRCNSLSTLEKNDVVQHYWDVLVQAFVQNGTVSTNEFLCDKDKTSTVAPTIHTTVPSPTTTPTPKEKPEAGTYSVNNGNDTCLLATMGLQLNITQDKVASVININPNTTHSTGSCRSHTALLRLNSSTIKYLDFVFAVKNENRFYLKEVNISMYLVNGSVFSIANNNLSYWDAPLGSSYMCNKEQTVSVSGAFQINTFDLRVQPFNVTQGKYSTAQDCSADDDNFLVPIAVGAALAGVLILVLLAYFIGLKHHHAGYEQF
UniProt P11142: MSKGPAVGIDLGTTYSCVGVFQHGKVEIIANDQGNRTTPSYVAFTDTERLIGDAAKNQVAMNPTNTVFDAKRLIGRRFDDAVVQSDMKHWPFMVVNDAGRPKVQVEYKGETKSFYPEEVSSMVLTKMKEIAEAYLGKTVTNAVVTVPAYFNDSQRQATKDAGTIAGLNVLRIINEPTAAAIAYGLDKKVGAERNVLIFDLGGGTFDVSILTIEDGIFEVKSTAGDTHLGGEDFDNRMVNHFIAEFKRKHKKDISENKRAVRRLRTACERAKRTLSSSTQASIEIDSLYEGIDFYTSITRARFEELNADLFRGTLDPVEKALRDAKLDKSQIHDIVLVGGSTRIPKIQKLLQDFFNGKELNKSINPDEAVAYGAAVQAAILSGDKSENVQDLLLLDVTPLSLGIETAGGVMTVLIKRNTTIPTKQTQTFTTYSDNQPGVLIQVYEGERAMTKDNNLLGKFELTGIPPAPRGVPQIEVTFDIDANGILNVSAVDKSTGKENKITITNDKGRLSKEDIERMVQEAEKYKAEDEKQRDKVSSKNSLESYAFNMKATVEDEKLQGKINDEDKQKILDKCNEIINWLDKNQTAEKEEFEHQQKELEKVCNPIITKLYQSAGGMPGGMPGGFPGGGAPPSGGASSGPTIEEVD

Key:
[1] = biological target: hypoxia inducible factor 1, α subunit (basic helix-loop-helix transcription factor) (human (endogenous in HeLa)) (UniProt Q16665); assay: co-IP; native conditions (lysis buffer 50 mM TRIS-HCl pH 7.4, 150 mM NaCl, 0.5% NP-40; washes 0.15% NP-40), 2 ug antibody overnight at 4 °C, protein G-Sepharose; HeLa cells transfected with HA-ubiquitin (wild type or mutants), with or without serum, 300 uM CoCl2, 25 nM BafA, 6 h; endogenous proteins, blot
[2] = biological target: lysosomal-associated membrane protein 2A (human (endogenous in HeLa)) (UniProt P13473); assay: as above
[3] = biological target: HSC70 (heat shock 70 kDa protein 8) (human (endogenous in HeLa)) (UniProt P11142); assay: as above
[4] = biological target: lysosomal-associated membrane protein 2A (human (endogenous in HeLa)) (UniProt P13473); assay: condition: only in cells overexpressing ubiquitin mutants that impair K63 chain formation (K48, K63R); co-IP; as a1, native conditions, in HeLa cells overexpressing HA-ubiquitin mutants that impair K63 chain formation (K48, K63R)

Substance | binding [1] | binding [2] | binding [3] | binding [4]
HSC70 (heat shock 70 kDa protein 8) (from UniProt P11142 1-646) | binds |  |  | 
hypoxia inducible factor 1, α subunit (basic helix-loop-helix transcription factor) (from UniProt Q16665 1-826) |  | binds | binds | no binding
